# Measured values reported in US20070293422A1, “Beta-Amyloid Inhibitors and Use Thereof” (priority 2003, published 2007).
# Chains of the proteins cited; added tags and fusions are not shown. Lines headed by an entry give the natural chain unless they say otherwise; changes in a name come on top. Residues count along the entry.
# UniProt P05067, 672-713: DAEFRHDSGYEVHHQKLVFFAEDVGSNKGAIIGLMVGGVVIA
# Some results were stated once for a whole list of compounds, not compound by compound.
# Target: T1, Aβ1-42 (SEQ ID NO: 11) (Homo sapiens, UniProt P05067)
# T1 construct: purchased BACHEM H-1368.1000
# Assay: Thioflavine T fluorescence assay of Aβ1-42 amyloid fibril formation (fibrillogenesis assay)
# Type: biochemical
# Conditions: FIG. 1; 110 μM Aβ1-42, 37° C.
# Experimental: The percentage of formed fibrils after 2 days incubation with 110 μM of Aβ1-42 (SEQ ID NO: 11) at 37° C. is represented versus the concentration of the peptides of the invention (in μM). 100% of formed fibrils correspond to the fibrils formed in presence of Aβ1-42 alone. Triangles represent data for pAntp (SEQ ID NO: 4) and squares represent data for pAntp-BSB1 (SEQ ID NO: 6). The percentage of formed fibrils for peptides of the invention is compared to that obtained for a known beta-sheet breaker, BSB1 of SEQ ID NO: 5 (Lozenges). Data are the result of three independent experiments in duplicate.
# Amyloid formation can be quantitatively evaluated by the fluorescence emission of thioflavine T (ThT) bound to amyloid fibrils, as reported by Levine et al., 1993 and also Soto et al., 1995.
# In this assay, peptides of the invention were solubilized in water at different concentration in small Eppendorff tubes and lyophilized. […]
# Fluorescence is measured at excitation 435 nm and emission 485 nm in a Perkin Elmer, model LS50B fluorescence spectrometer. […] The initial value of fluorescence represents the fluorescence obtained with Ab1-42 peptide alone (highest concentration of fibrils) representing 100% of formed fibrils.
# The percentage of inhibition of Ab1-42 fibril formation induced by compounds of the invention can be calculated using an analytical method such as described in Soto et al., 1998.
smiles,measurement,value
CC[C@H](C)[C@H](NC(=O)[C@H](CCCCN)NC(=O)[C@@H](NC(=O)[C@H](CCC(N)=O)NC(=O)[C@@H](N)CCCNC(=N)N)[C@@H](C)CC)C(=O)N[C@@H](Cc1c[nH]c2ccccc12)C(=O)N[C@@H](Cc1ccccc1)C(=O)N[C@@H](CCC(N)=O)C(=O)N[C@@H](CC(N)=O)C(=O)N[C@@H](CCCNC(=N)N)C(=O)N[C@@H](CCCNC(=N)N)C(=O)N[C@@H](CCSC)C(=O)N[C@@H](CCCCN)C(=O)N[C@@H](Cc1c[nH]c2ccccc12)C(=O)N[C@@H](CCCCN)C(=O)N[C@@H](CCCCN)C(=O)N[C@@H](CC(C)C)C(=O)N1CCC[C@H]1C(=O)N[C@@H](Cc1ccccc1)C(=O)N[C@@H](Cc1ccccc1)C(=O)N[C@@H](CC(=O)O)C(N)=O [SEQ ID NO: 6],peptide concentration above which the % of fibrils reaches a plateau,Above 500 μM
